The subject of this data set is C6/36 cells. In kind it is cell-based, Ae. albopictus. Conditions: 10 µM.

Results on 1 compound are retold here after paper PMC6356585 (Viruses, 2018).

Where a name gives a salt, the structure may show the parent alone.

As to `CCCCc1oc2ccccc2c1C(=O)c1cc(I)c(OCCN(CC)CC)c(I)c1` [Amiodarone HCl], the “C6/36 Viability” value is 44 ± 15.3% of untreated control.
